Measurements published in patent US9188584B2, “Capture agents and related compositions, methods and systems” (CALIFORNIA INSTITUTE OF TECHNOLOGY, priority 2008, dated 2015).
At least one peptide structure holds a part that was inferred or is arguable (an end, a ring closure or a residue).

System: b(h)CAII
Test: Dot blot selectivity/sensitivity assay in porcine serum
Format: binding
Conditions: 10% porcine serum; biotinylated multi-ligand at 1 μM
Method: Dot blots are a common method for detecting proteins. […] For a dot blot, the solution containing the protein of interest is simply dotted onto an absorbent membrane material (typically nitrocellulose). The capture agent (typically an antibody) is labeled with biotin molecule, and applied to the same spot. The spot is rinsed, and then horseradish peroxidase (HRP)-labeled streptavidin is added, binding to the biotin that is bound to the protein. Optical methods are typically utilized to detect this binding. For these tests, Biotin-PEG-NovaTag resin (0.48 mmol/g; Novabiochem) was utilized for bulk synthesis of C-terminal biotin-labeled multi-ligands. After resin cleavage, the crude biotinylated multi-ligand was precipitated with ether and then purified to >98% by C18 reversed phase HPLC. For a dot blot assay, the procedure was as follows: b(h)CAII antigens were prepared as 1 mg/mL stocks in PBS (pH 7.4). A dilution series of antigen was applied to a nitrocellulose membrane, typically ranging from 2 μg to 0.5 ng per spot. […] The membrane was then washed with TBS. […] After washing with TBS for 1 h, 1:3000 Streptavidin-HRP (Abcam, Cambridge, Mass.) prepared in 0.5% milk/TBS was added to the membrane and incubated for 1 h. […]

## CC[C@@H](C)[C@@H](NC(=O)[C@@H](CC(C)C)NC(=O)[C@@H](CC(N)=O)NC(=O)C(N)CCCCn1cc(C[C@@H](NC(C)=O)C(=O)N[C@H](CCCCN)C(=O)N[C@H](Cc2c[nH]c3ccccc23)C(=O)N[C@H](CC(C)C)C(=O)N[C@H](Cc2c[nH]c3ccccc23)C(=O)NCC(=O)N[C@H](CC(C)C)C(=O)N[C@H](Cc2cn(CCCCC(NC(C)=O)C(=O)N[C@H](CCCCN)C(=O)N[C@H](Cc3ccccc3)C(=O)N[C@H](Cc3c[nH]c4ccccc34)C(=O)N[C@H](CC(C)C)C(=O)N[C@H](CCCCN)C(=O)N[C@H](CC(C)C)C(=O)O)nn2)C(=O)N2CCCCC2)nn1)C(=O)N[C@@H](C(=O)N[C@H](Cc1ccccc1)C(=O)N[C@H](CCCNC(=N)N)C(N)=O)C(C)C (stereo partly shown) [rfviln-Tz2-kwlwGl-Tz1-kfwlkl]
  limit of detection for b(h)CAII in dot blot: 20 ng protein
